Results taken from the supplement of paper PMC10849652.
This is one part of the list.

The chains behind the UniProt entries cited, without tags or fusion partners. Where a name states a change or a piece, a line headed by the entry shows the natural chain unless it says otherwise.
UniProt Q9BRS2: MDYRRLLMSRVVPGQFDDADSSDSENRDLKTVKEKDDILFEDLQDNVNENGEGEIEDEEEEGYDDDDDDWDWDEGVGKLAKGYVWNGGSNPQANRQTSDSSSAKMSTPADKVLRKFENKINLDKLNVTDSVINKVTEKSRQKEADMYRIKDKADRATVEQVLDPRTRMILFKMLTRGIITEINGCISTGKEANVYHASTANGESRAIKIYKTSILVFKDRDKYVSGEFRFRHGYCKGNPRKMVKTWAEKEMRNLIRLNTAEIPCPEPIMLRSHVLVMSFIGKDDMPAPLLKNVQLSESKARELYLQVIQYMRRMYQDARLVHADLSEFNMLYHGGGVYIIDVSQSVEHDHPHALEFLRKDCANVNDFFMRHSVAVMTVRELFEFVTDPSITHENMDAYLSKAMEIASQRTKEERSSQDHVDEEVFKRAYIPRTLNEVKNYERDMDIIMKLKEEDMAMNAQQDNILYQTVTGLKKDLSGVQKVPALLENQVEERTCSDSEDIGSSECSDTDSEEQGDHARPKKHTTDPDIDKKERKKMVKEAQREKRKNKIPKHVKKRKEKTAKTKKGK
UniProt Q9BVS4: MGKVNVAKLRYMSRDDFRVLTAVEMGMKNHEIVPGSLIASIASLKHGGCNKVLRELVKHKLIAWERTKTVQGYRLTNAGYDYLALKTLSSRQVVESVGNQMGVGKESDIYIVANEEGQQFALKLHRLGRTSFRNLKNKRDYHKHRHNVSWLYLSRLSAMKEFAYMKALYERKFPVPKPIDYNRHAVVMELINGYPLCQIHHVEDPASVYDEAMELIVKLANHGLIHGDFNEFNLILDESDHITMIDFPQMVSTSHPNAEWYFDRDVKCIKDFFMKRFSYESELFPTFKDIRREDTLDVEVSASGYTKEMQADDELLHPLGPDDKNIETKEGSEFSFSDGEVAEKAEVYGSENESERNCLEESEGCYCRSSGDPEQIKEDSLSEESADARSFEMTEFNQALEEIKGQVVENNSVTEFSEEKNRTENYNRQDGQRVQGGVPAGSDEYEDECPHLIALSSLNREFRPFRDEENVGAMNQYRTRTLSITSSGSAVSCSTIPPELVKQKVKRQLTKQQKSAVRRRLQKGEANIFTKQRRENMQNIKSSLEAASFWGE
UniProt Q99942: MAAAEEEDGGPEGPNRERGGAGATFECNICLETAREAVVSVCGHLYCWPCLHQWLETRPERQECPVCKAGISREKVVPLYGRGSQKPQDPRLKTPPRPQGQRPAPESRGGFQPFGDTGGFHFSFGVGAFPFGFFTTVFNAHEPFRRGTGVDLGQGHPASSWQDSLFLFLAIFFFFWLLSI
UniProt Q96NA2: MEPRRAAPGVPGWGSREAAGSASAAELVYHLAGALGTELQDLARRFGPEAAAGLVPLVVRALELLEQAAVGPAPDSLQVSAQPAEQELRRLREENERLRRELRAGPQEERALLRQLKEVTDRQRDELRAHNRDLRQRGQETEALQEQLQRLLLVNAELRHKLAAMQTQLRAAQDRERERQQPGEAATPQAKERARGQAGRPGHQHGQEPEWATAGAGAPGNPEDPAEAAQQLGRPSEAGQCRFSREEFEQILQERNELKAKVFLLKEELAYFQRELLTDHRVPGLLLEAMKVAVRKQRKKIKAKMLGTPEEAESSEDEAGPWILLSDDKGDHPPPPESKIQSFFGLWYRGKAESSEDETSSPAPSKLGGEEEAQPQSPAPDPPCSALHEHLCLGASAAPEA
UniProt P08134, whole entry, looked up: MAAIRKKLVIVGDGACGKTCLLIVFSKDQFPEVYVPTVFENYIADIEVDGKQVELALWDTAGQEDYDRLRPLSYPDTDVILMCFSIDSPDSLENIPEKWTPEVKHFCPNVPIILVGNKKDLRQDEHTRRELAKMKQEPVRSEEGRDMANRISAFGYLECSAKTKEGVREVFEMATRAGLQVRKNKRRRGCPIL
UniProt Q9BQY4: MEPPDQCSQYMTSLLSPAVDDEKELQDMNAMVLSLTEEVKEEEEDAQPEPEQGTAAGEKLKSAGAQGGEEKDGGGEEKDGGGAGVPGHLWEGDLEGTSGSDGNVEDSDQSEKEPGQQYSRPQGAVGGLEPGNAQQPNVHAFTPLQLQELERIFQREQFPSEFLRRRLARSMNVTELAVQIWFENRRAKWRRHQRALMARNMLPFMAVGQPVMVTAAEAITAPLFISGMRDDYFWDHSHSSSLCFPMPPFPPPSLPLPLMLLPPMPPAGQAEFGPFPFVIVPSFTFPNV
UniProt Q9Y4L5, whole entry, looked up: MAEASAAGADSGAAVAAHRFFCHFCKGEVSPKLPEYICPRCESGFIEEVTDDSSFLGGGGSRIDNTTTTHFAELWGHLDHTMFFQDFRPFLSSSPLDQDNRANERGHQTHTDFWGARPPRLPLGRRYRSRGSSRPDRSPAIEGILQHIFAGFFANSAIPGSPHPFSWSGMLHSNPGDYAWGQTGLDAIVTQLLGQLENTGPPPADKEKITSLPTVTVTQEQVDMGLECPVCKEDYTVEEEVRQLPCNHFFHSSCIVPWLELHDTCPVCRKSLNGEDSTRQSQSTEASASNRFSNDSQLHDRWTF
UniProt Q9BXT8: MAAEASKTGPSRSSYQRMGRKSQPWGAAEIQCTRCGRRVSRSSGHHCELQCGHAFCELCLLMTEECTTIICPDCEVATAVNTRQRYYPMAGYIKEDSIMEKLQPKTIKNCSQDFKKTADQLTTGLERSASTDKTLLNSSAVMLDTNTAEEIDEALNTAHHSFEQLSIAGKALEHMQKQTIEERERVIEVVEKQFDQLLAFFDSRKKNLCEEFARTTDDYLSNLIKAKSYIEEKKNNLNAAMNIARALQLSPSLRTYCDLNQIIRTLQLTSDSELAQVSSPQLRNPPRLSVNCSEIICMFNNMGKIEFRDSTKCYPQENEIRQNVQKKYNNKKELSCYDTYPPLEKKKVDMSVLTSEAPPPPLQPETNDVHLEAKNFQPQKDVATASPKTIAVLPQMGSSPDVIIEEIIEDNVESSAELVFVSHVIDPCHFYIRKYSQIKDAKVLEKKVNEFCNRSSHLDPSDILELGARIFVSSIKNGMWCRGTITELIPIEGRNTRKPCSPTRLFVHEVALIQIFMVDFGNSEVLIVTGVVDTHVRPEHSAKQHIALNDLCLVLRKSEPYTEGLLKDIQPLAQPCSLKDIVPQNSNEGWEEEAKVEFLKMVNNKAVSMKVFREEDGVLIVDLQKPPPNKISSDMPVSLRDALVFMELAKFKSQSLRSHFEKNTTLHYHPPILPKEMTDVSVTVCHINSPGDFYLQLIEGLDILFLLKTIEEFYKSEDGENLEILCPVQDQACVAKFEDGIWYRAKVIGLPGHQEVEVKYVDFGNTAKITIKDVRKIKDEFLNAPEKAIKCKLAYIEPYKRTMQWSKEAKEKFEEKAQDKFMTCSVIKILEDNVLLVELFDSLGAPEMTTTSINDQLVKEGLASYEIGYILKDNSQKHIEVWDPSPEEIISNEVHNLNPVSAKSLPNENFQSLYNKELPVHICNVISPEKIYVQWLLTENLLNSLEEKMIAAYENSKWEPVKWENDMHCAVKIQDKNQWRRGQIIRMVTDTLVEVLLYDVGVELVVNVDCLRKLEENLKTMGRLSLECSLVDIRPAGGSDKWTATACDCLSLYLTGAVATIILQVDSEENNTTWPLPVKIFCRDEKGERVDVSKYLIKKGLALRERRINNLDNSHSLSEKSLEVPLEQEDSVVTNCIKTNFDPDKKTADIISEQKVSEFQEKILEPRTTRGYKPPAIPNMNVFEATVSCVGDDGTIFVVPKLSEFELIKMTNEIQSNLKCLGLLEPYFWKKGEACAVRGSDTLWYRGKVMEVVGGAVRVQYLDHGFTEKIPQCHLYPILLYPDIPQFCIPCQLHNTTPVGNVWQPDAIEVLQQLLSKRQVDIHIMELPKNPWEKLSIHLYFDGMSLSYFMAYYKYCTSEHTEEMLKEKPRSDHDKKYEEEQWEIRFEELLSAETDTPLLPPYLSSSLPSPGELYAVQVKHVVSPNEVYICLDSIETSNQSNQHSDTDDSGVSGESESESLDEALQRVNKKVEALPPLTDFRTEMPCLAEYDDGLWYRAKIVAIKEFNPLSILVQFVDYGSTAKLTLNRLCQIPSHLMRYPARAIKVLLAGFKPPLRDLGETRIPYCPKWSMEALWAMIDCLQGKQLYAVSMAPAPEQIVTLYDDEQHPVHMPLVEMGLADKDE
UniProt Q8WVD3: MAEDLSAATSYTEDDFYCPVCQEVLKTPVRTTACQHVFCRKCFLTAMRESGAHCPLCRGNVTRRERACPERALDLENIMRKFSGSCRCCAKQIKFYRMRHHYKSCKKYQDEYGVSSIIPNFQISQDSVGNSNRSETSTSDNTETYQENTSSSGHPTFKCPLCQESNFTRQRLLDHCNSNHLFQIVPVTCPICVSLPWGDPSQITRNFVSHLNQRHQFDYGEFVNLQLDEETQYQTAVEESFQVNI
UniProt Q969X0: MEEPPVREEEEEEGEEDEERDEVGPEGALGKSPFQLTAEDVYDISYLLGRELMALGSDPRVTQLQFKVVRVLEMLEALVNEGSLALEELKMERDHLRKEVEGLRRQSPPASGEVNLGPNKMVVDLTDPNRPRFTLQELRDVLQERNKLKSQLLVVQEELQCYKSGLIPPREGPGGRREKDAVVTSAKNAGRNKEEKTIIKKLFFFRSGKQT
UniProt P17081: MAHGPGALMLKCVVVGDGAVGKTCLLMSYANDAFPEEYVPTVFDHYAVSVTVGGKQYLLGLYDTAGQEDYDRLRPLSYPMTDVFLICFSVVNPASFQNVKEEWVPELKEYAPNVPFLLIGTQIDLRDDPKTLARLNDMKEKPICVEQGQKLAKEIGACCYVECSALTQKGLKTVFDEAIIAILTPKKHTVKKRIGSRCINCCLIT
UniProt Q9H4P4: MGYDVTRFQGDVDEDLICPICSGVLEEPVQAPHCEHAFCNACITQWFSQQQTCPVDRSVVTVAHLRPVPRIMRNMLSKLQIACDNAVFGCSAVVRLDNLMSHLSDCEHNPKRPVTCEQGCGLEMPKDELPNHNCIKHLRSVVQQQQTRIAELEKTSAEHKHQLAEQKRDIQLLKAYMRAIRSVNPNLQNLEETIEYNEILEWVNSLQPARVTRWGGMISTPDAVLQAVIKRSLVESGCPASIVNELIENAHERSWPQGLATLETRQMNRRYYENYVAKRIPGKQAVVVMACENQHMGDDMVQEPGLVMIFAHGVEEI
UniProt P60602: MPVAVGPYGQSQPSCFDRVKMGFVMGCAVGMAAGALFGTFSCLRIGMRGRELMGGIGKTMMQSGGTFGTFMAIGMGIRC
UniProt O94955, whole entry, looked up: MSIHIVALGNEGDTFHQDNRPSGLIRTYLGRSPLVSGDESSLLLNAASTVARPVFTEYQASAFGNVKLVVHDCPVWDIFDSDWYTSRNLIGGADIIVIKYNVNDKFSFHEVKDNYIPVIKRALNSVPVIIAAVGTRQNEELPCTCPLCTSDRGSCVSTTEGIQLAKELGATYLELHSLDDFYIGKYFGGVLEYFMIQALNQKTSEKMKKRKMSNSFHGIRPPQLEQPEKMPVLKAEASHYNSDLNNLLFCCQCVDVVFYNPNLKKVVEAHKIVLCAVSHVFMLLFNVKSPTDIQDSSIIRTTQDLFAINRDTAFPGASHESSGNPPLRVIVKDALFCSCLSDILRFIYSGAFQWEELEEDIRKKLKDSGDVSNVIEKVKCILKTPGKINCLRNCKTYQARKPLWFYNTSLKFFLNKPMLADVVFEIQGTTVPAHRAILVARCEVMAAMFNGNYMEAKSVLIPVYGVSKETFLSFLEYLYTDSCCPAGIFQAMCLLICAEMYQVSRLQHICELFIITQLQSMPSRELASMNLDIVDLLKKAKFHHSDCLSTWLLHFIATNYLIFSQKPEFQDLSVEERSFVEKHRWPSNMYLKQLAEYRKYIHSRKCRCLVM
UniProt Q8N5U6: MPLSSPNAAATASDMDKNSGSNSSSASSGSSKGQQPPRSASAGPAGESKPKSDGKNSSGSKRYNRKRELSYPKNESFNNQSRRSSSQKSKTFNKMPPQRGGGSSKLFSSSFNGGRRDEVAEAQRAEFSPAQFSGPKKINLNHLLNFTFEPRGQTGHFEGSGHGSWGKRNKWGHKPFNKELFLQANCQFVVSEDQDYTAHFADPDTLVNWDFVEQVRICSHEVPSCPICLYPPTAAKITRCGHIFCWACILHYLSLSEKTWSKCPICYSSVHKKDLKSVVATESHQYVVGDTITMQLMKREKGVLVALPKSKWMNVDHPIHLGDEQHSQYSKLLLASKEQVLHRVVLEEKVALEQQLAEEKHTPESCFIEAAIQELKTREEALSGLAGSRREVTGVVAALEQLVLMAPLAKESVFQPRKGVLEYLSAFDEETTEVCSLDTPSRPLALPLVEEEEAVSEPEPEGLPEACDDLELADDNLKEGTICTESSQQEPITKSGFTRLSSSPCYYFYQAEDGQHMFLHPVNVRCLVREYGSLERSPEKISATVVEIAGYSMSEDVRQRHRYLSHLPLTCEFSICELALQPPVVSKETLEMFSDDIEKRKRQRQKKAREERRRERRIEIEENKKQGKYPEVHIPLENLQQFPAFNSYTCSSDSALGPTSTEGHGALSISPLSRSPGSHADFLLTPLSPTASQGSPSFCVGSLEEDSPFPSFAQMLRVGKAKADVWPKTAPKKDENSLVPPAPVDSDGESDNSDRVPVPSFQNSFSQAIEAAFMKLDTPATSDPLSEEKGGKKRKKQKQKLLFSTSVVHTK

How the values were obtained:
Experiment in all cases: log2 fold change, soluble protein after heating vs DMSO (PISA); higher = thermal stabilisation; K562 lysate, 10 uM; active = over 0.2 and 3.5 SD of the protein, either way, in both replicates (recomputed)
alvocidib = compound: CN1CC[C@H](c2c(O)cc(O)c3c(=O)cc(-c4ccccc4Cl)oc23)[C@H](O)C1 [alvocidib]
Procedure, shortened: (§1)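 K562 pellets were dounce-homogenised in PBS pH 7.4 with 1 mM MgCl2, and the crude extract at 1 mg/mL protein was treated with 10 μM compound for 30 min. Aliquots were heated for 3 min across 48°C-58°C, pooled, and brought to 0.5% NP-40 at 4°C; soluble protein was the supernatant after 21,000xg for 90 min. Soluble protein was quantified by TMTpro 16plex LC-MS/MS with channel sums equalised, and reported as log2 fold change in thermal stability against DMSO controls, with values from duplicates.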

Tubastatin A = compound: CN1CCc2c(c3ccccc3n2Cc2ccc(C(=O)NO)cc2)C1 [Tubastatin A]
Procedure, shortened: as §1

[1] = compound: CNC(=O)C1=CC=CC=C1NC2=NC(=NC=C2Cl)NC3=C(C=C(C=C3)N4CCOCC4)OC
Procedure, shortened: as §1

defactinib = compound: CNC(=O)c1ccc(Nc2ncc(C(F)(F)F)c(NCc3nccnc3N(C)S(C)(=O)=O)n2)cc1 [defactinib]
Procedure, shortened: as §1

[2] = compound: CNc1nc(-c2ccc3c(N)n[nH]c3c2)cc(N2C[C@@H](C(=O)NC3CCCCC3)CC[C@H]2C)n1
Procedure, shortened: as §1

encorafenib = compound: COC(=O)N[C@@H](C)CNc1nccc(-c2cn(C(C)C)nc2-c2cc(Cl)cc(NS(C)(=O)=O)c2F)n1 [encorafenib]
Procedure, shortened: as §1

[3] = compound: COC(=O)[C@H](CCSC)NC(=O)C1=C(C=C(C=C1)NC[C@H](CS)N)C2=CC=CC=C2
Procedure, shortened: as §1

alisertib = compound: COc1cc(Nc2ncc3c(n2)-c2ccc(Cl)cc2C(c2c(F)cccc2OC)=NC3)ccc1C(=O)O [alisertib]
Procedure, shortened: as §1

[4] = compound: COc1cc2nc(-c3cc(F)ccc3O)nc(N[C@@H]3CNC[C@H]3C(C)(C)O)c2cc1OC
Procedure, shortened: as §1

gefitinib = compound: COc1cc2ncnc(Nc3ccc(F)c(Cl)c3)c2cc1OCCCN1CCOCC1 [gefitinib]
Procedure, shortened: as §1

Target | log2 fold change (alvocidib) | log2 fold change (Tubastatin A) | log2 fold change [1] | log2 fold change (defactinib) | log2 fold change [2] | log2 fold change (encorafenib) | log2 fold change [3] | log2 fold change (alisertib) | log2 fold change [4] | log2 fold change (gefitinib)
RPL12 (UniProt P30050) | inactive: 0.01 | inactive: 0.077 | inactive: -0.033 | inactive: -0.023 | inactive: 0.034 | inactive: -0.002 | inactive: -0.009 | inactive: 0 | inactive: 0.018 | inactive: -0.015
ROCK2 (UniProt O75116) | inactive: 0 | inactive: -0.008 | inactive: 0.021 | inactive: -0.012 | inactive: 0.13 | inactive: 0.013 | inactive: -0.008 | inactive: -0.03 | inactive: 0.175 | inactive: 0.002
RIOK1 (UniProt Q9BRS2) | inactive: 0 | inactive: 0.005 | inactive: 0.008 | inactive: -0.009 | active: 0.413 | inactive: 0.006 | inactive: -0.006 | inactive: 0.01 | inactive: 0.168 | inactive: -0.019
RPL27A (UniProt P46776) | inactive: -0.013 | inactive: 0.053 | inactive: -0.036 | inactive: 0.008 | inactive: -0.041 | inactive: -0.01 | inactive: -0.006 | inactive: 0.022 | inactive: -0.009 | inactive: -0.029
RNF25 (UniProt Q96BH1) | inactive: -0.006 | inactive: 0.018 | inactive: -0.006 | inactive: 0.001 | inactive: 0.071 | inactive: 0.004 | inactive: -0.028 | inactive: -0.097 | inactive: -0.021 | inactive: -0.031
RNF149 (UniProt Q8NC42) | inactive: -0.038 | inactive: -0.047 | inactive: 0.02 | inactive: 0.028 | inactive: 0.004 |  |  | active: -0.483 | inactive: -0.059 | inactive: -0.075
RPL10 (UniProt P27635) | inactive: 0.062 | inactive: 0.003 | inactive: 0.004 | inactive: 0.03 | inactive: 0.008 | inactive: 0.053 | inactive: 0.004 | inactive: 0.002 | inactive: -0.008 | inactive: -0.003
RNF31 (UniProt Q96EP0) | inactive: -0.009 | inactive: -0.018 | inactive: 0.01 | inactive: -0.004 | inactive: -0.035 | inactive: -0.014 | inactive: 0.015 | inactive: 0.029 | inactive: 0.065 | inactive: 0.029
RIOK2 (UniProt Q9BVS4) | inactive: -0.021 | inactive: -0.098 | active: 0.438 | inactive: 0.105 | inactive: 0.127 | inactive: -0.025 | inactive: 0.029 | inactive: -0.005 | inactive: -0.051 | inactive: -0.011
RIF1 (UniProt Q5UIP0) | inactive: -0.01 | inactive: -0.042 | inactive: 0.039 | inactive: -0.007 | inactive: 0.015 | inactive: 0.008 | inactive: 0.053 | inactive: -0.014 | inactive: 0.004 | inactive: 0
RPL17 isoform 3 (UniProt P18621) | inactive: 0.031 | inactive: 0.017 | inactive: 0.001 | inactive: 0.047 | inactive: 0.007 | inactive: 0.004 | inactive: -0.018 | inactive: -0.001 | inactive: -0.023 | inactive: -0.048
RPL26L1 (UniProt Q9UNX3) | inactive: 0.091 | inactive: -0.003 | inactive: -0.006 | inactive: -0.007 | inactive: 0.016 | inactive: 0.003 | inactive: 0.037 | inactive: -0.036 | inactive: -0.01 | inactive: -0.068
RNPEPL1 (UniProt Q9HAU8) | inactive: 0.073 | inactive: 0.007 | inactive: -0.015 | inactive: -0.161 | inactive: 0.056 |  |  | inactive: -0.111 | inactive: 0.252 | inactive: 0.095
RING1 (UniProt Q06587) | inactive: 0.021 | inactive: -0.057 | inactive: -0.013 | inactive: -0.008 | inactive: 0.076 | inactive: 0.01 | inactive: -0.026 | inactive: 0.012 | inactive: 0.001 | inactive: -0.066
RINL (UniProt Q6ZS11) | inactive: 0.126 | inactive: -0.142 | inactive: 0.117 |  | inactive: 0.07 | inactive: 0.283 | inactive: 0.212 | inactive: 0.066 | inactive: 0.04 | inactive: -0.022
RMI1 (UniProt Q9H9A7) | inactive: -0.065 | inactive: 0.109 | inactive: -0.029 | inactive: -0.037 | inactive: 0.089 | inactive: 0.022 | inactive: 0.108 | inactive: 0.157 | inactive: -0.141 | inactive: -0.049
RNF5 (UniProt Q99942) | inactive: -0.016 | inactive: -0.055 | inactive: -0.099 |  | inactive: -0.035 | inactive: 0.063 | inactive: -0.084 | inactive: 0.081 |  | inactive: 0.03
RILP (UniProt Q96NA2) | inactive: 0.023 | inactive: -0.001 | inactive: 0.006 | inactive: 0 | inactive: 0.005 | inactive: 0.032 | inactive: 0.002 | inactive: 0.009 | inactive: -0.042 | inactive: 0.033
RNPS1 (UniProt Q15287) | inactive: -0.043 | inactive: 0.102 | inactive: 0.02 | inactive: -0.009 | inactive: 0.029 | inactive: 0.069 | inactive: 0.01 | inactive: 0.02 | inactive: 0.01 | inactive: 0.006

An excerpt of the results above, as a working copy:
Target | log2 fold change (alvocidib) | log2 fold change (Tubastatin A) | log2 fold change [1] | log2 fold change (defactinib) | log2 fold change [2] | log2 fold change (encorafenib) | log2 fold change [3] | log2 fold change (alisertib) | log2 fold change [4] | log2 fold change (gefitinib)
RNPEPL1 (UniProt Q9HAU8) | inactive: 0.073 | inactive: 0.007 | inactive: -0.015 | inactive: -0.161 | inactive: 0.056 |  |  | inactive: -0.111 | inactive: 0.252 | inactive: 0.095
RING1 (UniProt Q06587) | inactive: 0.021 | inactive: -0.057 | inactive: -0.013 | inactive: -0.008 | inactive: 0.076 | inactive: 0.01 | inactive: -0.026 | inactive: 0.012 | inactive: 0.001 | inactive: -0.066

Next records follow.

Target | log2 fold change (alvocidib) | log2 fold change (Tubastatin A) | log2 fold change [1] | log2 fold change (defactinib) | log2 fold change [2] | log2 fold change (encorafenib) | log2 fold change [3] | log2 fold change (alisertib) | log2 fold change [4] | log2 fold change (gefitinib)
RHOC (UniProt P08134) | inactive: -0.015 | inactive: -0.026 | inactive: 0.029 | inactive: 0.004 | inactive: -0.104 | inactive: -0.018 | inactive: 0.024 | inactive: -0.014 | inactive: 0.028 | inactive: 0.004
RHOXF2 (UniProt Q9BQY4) | inactive: 0.004 | inactive: 0.017 | inactive: 0.019 | inactive: 0.013 | inactive: 0.017 | inactive: 0.063 | inactive: -0.042 | inactive: 0.049 | inactive: 0.042 | inactive: -0.017
RNF114 (UniProt Q9Y508) | inactive: -0.021 | inactive: 0.06 | inactive: 0.052 | inactive: -0.037 | inactive: 0.039 | inactive: 0.005 | inactive: -0.06 | inactive: 0.032 | inactive: -0.004 | inactive: -0.136
RNASEH2B, A0A1B0GUE7 |  |  |  |  |  |  |  | inactive: 0.04 | inactive: 0.039 | inactive: -0.028
RNF24 isoform 2 (UniProt Q9Y225) | inactive: 0.079 |  | inactive: 0.003 |  |  |  |  | inactive: -0.113 |  | inactive: -0.108
RNF115 (UniProt Q9Y4L5) | inactive: 0.165 |  |  | inactive: -0.025 |  |  |  | inactive: -0.104 |  | inactive: -0.628
RNF17 (UniProt Q9BXT8) | inactive: -0.006 | inactive: 0.079 | inactive: 0.096 |  | inactive: -0.183 | inactive: 0.061 | inactive: -0.032 |  | inactive: -0.057 | 
ROBO2 isoform 3 (UniProt Q9HCK4) |  | inactive: -0.009 | inactive: 0.03 |  |  |  |  |  | inactive: 0.009 | 
RNF138 (UniProt Q8WVD3) | inactive: -0.078 | inactive: -0.124 |  | inactive: -0.047 | inactive: -0.009 | inactive: 0.074 | inactive: -0.316 | inactive: 0.009 |  | inactive: -0.001
RNF8 (UniProt O76064) | inactive: -0.086 | inactive: -0.067 | inactive: 0.083 |  | inactive: 0.08 | inactive: -0.018 | inactive: 0.06 | inactive: -0.054 |  | inactive: 0.039
RILPL2 (UniProt Q969X0) | inactive: -0.027 | inactive: -0.014 | inactive: 0.023 |  |  |  |  | inactive: -0.05 | inactive: 0.054 | inactive: -0.049
RPL10, A0A087WV22 |  | inactive: -0.06 | inactive: -0.542 |  | inactive: 0.219 |  |  |  |  | 
RPAIN isoform 8 (UniProt Q86UA6) | inactive: 0.174 |  |  | inactive: -0.014 |  | inactive: 0.051 | inactive: -0.19 |  |  | 
RHOQ (UniProt P17081) |  |  |  | inactive: -0.031 |  | inactive: 0.002 | inactive: 0.094 |  |  | 
RHOXF2B (UniProt P0C7M4) |  | inactive: -0.031 | inactive: 0.138 | inactive: 0.086 | inactive: -0.038 |  |  |  | inactive: 0.029 | 
RNF41 (UniProt Q9H4P4) | inactive: 0.12 | inactive: -0.017 | inactive: -0.01 |  | inactive: -0.141 |  |  | inactive: -0.073 |  | inactive: -0.166
ROMO1 (UniProt P60602) |  | inactive: -0.254 | inactive: -0.133 | inactive: 0.018 | inactive: 0.06 | inactive: -0.003 | inactive: -0.051 | inactive: -0.11 | inactive: -0.089 | inactive: 0.066
RHOBTB3 (UniProt O94955) |  |  | inactive: -0.152 |  |  | inactive: 0.026 | inactive: 0.07 | inactive: -0.041 |  | inactive: -0.056
RNF10 isoform 2 (UniProt Q8N5U6) |  |  | inactive: 0.157 |  | inactive: 0.063 | inactive: -0.098 | inactive: 0.121 |  | inactive: -0.054 | 
